For 14 substances, binding results are on record in publication PMC6339880.

Sequences of proteins named here, by UniProt entry; tags and fusion partners are left off. Residues count along the entry.
UniProt P0AAI3: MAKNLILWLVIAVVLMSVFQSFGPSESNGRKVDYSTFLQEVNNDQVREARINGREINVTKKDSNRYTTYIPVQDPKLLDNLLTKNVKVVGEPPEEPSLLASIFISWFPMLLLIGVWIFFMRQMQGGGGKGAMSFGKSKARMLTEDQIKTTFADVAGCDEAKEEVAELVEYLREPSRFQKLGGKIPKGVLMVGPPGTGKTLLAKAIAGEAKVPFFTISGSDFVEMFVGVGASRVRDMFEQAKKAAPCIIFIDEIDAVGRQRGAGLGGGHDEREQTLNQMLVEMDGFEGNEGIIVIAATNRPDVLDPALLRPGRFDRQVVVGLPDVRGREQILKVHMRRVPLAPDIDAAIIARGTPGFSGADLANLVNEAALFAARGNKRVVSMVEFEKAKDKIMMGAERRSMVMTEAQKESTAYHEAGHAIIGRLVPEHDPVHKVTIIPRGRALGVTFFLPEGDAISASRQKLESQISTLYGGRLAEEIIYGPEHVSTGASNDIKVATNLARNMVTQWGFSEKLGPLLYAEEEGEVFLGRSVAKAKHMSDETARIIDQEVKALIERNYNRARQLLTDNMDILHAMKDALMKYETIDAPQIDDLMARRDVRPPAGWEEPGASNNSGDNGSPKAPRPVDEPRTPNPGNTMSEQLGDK
UniProt P0A850: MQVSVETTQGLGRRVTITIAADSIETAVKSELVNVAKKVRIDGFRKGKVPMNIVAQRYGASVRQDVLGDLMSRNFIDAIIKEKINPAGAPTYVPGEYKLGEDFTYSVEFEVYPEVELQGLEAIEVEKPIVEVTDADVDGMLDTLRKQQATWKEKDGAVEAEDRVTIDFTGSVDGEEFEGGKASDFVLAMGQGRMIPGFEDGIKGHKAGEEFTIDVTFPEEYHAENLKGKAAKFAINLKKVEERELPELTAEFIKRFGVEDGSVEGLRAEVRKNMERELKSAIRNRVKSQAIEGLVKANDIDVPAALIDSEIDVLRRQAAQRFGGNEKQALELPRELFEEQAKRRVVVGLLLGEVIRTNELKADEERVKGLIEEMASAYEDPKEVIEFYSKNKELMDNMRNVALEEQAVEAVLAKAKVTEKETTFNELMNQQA
UniProt P02943, residues 26-446: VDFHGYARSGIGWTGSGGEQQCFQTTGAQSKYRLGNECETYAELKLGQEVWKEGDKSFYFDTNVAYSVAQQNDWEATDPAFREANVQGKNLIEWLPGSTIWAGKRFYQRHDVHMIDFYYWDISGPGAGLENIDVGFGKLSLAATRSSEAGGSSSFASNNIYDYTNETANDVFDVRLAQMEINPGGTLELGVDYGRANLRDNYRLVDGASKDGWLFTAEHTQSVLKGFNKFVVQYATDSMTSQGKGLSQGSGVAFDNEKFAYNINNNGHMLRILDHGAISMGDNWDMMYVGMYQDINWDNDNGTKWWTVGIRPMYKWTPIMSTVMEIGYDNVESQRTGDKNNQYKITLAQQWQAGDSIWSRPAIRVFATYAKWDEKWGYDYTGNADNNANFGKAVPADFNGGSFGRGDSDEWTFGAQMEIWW
UniProt P0A6B7: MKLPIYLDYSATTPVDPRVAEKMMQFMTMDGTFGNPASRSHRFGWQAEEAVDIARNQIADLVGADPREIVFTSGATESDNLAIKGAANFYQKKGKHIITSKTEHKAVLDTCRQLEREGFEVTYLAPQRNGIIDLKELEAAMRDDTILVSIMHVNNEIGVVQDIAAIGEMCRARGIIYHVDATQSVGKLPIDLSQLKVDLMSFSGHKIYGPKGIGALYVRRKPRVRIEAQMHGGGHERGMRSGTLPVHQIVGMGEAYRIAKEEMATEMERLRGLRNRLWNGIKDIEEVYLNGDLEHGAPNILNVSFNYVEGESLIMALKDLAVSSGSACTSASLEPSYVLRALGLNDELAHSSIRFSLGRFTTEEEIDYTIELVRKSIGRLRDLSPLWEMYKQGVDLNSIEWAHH
UniProt P0A715: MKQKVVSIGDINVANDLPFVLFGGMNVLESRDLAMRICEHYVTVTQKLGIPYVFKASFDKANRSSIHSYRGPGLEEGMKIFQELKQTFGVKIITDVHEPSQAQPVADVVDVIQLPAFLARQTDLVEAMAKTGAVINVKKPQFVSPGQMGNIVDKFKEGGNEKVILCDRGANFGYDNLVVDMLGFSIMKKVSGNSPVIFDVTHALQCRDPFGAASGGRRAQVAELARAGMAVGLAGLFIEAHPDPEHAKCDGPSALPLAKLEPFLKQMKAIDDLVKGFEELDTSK
UniProt P63224: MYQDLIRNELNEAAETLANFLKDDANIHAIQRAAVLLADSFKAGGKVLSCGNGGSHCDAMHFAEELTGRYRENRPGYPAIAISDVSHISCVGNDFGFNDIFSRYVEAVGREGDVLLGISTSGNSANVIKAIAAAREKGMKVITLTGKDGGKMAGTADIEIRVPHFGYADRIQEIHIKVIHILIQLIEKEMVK
UniProt P0AG20: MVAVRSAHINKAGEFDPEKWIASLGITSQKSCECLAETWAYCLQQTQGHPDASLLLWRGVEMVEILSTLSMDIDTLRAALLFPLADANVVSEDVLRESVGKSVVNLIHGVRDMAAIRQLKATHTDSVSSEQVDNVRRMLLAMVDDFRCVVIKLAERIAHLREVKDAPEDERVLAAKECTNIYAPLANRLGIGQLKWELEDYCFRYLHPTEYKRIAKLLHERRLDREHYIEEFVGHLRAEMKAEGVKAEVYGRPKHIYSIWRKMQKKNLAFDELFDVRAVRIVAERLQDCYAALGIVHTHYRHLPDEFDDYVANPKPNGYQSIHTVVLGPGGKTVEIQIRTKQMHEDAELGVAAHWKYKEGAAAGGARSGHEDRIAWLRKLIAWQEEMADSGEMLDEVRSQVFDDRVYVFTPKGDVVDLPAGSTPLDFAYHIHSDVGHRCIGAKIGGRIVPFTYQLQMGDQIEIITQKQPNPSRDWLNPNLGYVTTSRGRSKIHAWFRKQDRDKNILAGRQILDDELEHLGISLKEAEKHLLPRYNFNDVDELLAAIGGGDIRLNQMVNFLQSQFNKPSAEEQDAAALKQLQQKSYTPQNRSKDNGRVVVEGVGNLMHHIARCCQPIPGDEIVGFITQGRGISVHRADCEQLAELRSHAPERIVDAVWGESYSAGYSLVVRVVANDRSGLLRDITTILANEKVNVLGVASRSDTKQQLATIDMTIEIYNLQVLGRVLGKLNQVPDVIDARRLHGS
UniProt P0A6F5: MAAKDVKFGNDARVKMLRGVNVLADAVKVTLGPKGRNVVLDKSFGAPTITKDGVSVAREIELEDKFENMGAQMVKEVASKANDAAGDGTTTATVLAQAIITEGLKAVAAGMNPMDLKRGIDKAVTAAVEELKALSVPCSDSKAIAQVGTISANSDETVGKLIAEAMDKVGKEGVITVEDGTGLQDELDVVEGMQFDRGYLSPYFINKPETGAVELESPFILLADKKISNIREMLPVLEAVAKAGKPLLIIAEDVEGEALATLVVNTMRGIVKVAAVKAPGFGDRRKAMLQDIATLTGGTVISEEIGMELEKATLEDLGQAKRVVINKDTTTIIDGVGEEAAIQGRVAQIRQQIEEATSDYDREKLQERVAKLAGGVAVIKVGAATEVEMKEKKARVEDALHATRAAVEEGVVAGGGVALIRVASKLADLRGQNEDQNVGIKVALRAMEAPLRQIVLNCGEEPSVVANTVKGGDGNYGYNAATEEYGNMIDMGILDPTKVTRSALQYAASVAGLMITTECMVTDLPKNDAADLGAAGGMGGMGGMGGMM
UniProt P0AAI5: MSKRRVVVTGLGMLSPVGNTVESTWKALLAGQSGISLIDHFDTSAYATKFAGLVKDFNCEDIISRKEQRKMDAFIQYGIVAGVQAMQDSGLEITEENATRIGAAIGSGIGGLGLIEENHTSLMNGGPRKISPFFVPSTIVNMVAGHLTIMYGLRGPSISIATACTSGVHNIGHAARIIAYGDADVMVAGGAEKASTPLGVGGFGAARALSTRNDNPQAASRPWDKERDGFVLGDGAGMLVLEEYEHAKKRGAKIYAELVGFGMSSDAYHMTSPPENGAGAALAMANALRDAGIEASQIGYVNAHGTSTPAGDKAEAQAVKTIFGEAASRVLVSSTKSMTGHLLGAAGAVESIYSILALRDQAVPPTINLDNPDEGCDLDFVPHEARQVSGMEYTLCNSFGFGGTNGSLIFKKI
UniProt P04951: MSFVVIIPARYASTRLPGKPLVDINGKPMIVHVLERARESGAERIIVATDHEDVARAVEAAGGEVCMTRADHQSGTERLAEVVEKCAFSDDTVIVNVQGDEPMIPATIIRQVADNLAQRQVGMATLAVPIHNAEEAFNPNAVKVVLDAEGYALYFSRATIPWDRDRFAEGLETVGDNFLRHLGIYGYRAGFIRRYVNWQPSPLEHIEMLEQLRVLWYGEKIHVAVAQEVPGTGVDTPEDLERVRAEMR
UniProt P76472: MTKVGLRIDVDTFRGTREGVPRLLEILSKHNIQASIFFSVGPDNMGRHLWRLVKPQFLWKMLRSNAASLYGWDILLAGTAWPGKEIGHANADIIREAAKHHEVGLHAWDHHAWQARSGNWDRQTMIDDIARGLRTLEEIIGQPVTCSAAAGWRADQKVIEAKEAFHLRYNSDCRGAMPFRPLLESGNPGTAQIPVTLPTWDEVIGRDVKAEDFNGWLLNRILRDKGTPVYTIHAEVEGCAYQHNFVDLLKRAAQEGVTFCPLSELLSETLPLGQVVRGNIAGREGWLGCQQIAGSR
UniProt P0AG24: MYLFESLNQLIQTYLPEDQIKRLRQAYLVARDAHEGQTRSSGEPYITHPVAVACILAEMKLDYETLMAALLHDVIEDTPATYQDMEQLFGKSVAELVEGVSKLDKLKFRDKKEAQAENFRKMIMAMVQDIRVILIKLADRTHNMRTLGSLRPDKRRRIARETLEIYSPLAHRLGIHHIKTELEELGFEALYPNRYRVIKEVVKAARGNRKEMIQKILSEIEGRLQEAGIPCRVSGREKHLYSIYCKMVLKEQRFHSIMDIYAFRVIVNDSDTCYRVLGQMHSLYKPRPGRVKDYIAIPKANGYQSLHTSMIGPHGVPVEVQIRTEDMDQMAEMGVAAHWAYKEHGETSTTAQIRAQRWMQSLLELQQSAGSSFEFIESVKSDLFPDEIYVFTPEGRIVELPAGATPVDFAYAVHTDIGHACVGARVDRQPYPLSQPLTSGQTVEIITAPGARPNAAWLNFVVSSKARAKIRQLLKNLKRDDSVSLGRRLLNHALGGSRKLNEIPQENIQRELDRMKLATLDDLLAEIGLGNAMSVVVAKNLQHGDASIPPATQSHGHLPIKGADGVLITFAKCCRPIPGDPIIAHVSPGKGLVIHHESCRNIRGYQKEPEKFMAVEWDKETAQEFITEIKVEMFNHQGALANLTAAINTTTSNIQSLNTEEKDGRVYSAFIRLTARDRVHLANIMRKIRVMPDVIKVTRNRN
UniProt P0A8V6: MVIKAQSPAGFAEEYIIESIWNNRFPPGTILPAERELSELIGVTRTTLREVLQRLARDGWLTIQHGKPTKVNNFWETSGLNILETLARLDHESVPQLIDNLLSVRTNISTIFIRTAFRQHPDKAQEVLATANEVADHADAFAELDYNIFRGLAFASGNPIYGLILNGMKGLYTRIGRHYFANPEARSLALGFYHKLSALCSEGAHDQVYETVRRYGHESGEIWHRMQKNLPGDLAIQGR

These are yes or no findings as the source states them, for the method shown. Binding seen in cells or lysates may run through a third protein. These calls come from enrichment with a bait or labelling near it, and not all partners need be listed.

The target in the first assay is His6-MBP-FtsH (E. coli) (UniProt P0AAI3). Nature of the assay: affinity purification with mass spectrometry; His6-MBP-FtsH overproduced in E. coli BL21 Δarg/Δlys grown at 30°C (slow), 37°C (medium) or 40°C (fast growth); Ni-NTA affinity purification from the lysate; co-purified proteins identified by LC-MS/MS with a super-SILAC standard; enriched >2-fold over the His6-MBP empty-vector control, p<0.05, or 'FtsH only'.
For Tig (from UniProt P0A850 1-432), the binding result is “binds”.

LamB (from UniProt P02943 26-446): the binding result was “binds”.

On to “IscS (from UniProt P0A6B7 1-404) (enzyme)”, for which the binding result is “binds”.

As to “KdsA (from UniProt P0A715 1-284) (enzyme)”, the binding entry is reported as “binds”.

On to “GmhA (from UniProt P63224 1-192) (enzyme)”, for which the binding entry is reported as “binds”.

In another assay the target is T1, Strep-LpxC (E. coli) (UniProt P0A725).
T1 sequence: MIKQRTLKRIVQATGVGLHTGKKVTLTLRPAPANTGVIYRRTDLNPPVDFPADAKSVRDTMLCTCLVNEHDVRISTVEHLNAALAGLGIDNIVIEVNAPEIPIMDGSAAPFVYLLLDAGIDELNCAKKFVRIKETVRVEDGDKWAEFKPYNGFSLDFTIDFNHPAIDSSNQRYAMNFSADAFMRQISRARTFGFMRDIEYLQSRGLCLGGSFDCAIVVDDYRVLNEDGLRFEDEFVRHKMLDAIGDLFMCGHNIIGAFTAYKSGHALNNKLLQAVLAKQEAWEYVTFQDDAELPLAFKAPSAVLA
In words: affinity purification with mass spectrometry; Strep-LpxC overproduced in E. coli BL21 Δarg/Δlys grown at 30°C (slow), 37°C (medium) or 40°C (fast growth); Strep-tactin affinity purification from the lysate; co-purified proteins identified by LC-MS/MS with a super-SILAC standard; enriched >2-fold over the Strep-tag empty-vector control, p<0.05, or 'LpxC only'.
For “FtsH (from UniProt P0AAI3 1-644) (enzyme)”, the binding result is on record as “binds”.

Regarding “RelA (from UniProt P0AG20 1-744) (enzyme)”, the binding entry is “binds”.

“WaaH (E. coli (endogenous in BL21 Δarg/Δlys)) (enzyme)”: the binding result is recorded as “binds”.

Regarding LamB (from UniProt P02943 26-446), the binding entry is listed as “binds”.

As to GroEL (from UniProt P0A6F5 1-548), the binding entry is recorded as “binds”.

In the case of “KdsA (from UniProt P0A715 1-284) (enzyme)”, the binding result was “binds”.

In the case of “FabF (from UniProt P0AAI5 1-413) (enzyme)”, the binding result was “binds”.

Turning to “KdsB (from UniProt P04951 1-248) (enzyme)”, the binding result is reported as “binds”.

Take “ArnD (from UniProt P76472 1-296) (enzyme)”: the binding entry is “binds”.

With “SpoT (from UniProt P0AG24 1-702) (enzyme)”, the binding result is given as “binds”.

As for FadR (from UniProt P0A8V6 1-239), the binding entry is reported as “binds”.
